# According to the supplement of paper PMC10849652:
# The chains behind the UniProt entries cited, without tags or fusion partners. Where a name states a change or a piece, a line headed by the entry shows the natural chain unless it says otherwise.
# UniProt Q9BTV7: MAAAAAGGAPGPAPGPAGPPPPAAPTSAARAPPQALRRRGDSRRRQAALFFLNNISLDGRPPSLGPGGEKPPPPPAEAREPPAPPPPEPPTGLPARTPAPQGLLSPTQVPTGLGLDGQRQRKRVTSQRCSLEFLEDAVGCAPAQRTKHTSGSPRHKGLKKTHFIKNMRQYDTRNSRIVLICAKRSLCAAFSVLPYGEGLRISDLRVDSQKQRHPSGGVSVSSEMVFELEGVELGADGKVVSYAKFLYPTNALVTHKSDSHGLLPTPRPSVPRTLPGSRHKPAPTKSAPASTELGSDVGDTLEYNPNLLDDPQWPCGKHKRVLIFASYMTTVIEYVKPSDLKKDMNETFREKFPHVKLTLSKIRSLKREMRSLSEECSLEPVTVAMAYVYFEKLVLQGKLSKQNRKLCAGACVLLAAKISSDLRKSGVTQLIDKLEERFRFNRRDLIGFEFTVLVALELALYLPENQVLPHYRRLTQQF
# UniProt P27708: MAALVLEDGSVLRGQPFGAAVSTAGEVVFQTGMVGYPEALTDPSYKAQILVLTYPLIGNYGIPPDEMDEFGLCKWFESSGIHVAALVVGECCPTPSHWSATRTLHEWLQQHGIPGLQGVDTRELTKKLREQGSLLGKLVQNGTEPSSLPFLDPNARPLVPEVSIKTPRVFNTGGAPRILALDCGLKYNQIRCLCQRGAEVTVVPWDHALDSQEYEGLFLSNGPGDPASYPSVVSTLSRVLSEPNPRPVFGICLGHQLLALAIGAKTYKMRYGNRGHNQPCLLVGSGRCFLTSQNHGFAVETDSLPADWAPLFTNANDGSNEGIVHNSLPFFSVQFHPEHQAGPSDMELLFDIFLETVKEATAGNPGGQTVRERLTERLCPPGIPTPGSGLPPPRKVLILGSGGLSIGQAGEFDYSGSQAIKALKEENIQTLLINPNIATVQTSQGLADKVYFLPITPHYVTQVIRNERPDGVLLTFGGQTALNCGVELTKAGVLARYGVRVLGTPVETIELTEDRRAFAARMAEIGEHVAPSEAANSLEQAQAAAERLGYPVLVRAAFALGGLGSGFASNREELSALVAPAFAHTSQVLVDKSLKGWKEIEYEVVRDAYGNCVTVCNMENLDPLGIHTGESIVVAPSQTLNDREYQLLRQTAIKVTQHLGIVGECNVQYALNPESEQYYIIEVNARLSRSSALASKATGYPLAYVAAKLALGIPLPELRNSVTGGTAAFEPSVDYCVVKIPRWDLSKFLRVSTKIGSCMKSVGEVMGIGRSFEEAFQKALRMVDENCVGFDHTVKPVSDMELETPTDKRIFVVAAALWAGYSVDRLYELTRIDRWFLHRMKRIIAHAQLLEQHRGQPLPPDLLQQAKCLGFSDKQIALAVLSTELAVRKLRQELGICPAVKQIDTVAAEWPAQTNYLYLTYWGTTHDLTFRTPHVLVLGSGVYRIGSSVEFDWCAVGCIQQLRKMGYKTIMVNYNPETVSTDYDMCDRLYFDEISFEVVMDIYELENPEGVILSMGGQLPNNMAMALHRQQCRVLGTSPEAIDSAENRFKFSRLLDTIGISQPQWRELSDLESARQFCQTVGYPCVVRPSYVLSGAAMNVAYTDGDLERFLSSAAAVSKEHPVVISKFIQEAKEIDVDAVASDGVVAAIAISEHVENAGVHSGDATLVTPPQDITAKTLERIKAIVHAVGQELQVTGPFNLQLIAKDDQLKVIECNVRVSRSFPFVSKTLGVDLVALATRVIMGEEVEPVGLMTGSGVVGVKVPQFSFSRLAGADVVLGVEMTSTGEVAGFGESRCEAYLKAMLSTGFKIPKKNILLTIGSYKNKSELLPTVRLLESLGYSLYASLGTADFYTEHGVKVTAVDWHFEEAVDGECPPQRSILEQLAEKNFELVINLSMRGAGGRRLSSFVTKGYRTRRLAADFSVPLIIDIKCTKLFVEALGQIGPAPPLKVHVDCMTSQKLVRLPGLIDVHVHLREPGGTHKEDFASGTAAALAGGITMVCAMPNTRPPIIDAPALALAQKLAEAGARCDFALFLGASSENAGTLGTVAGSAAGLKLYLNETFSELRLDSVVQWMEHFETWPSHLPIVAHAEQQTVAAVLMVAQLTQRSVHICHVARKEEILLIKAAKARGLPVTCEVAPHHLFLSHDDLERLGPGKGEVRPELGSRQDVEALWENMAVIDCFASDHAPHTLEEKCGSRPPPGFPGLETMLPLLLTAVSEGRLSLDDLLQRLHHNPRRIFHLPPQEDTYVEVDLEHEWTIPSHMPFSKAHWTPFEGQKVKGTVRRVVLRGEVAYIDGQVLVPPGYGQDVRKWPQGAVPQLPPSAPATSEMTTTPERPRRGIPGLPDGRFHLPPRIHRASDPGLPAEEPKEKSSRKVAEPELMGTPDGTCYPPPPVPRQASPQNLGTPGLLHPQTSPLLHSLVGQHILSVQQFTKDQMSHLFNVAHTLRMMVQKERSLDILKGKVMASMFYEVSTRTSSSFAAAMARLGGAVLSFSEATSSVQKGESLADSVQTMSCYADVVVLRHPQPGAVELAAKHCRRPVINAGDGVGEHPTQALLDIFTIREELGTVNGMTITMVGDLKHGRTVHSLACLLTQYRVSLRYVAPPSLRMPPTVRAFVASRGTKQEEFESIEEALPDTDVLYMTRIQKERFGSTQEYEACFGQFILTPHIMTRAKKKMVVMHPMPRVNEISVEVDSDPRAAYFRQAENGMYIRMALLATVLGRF
# UniProt Q9Y2V0: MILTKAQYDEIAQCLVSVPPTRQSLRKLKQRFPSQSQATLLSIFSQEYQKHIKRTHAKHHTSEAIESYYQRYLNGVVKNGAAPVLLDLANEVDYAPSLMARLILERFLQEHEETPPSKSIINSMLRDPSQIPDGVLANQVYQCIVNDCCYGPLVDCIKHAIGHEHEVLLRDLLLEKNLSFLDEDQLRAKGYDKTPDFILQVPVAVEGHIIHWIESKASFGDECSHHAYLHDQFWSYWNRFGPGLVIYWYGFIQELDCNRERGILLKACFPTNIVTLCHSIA
# UniProt P0C0L4: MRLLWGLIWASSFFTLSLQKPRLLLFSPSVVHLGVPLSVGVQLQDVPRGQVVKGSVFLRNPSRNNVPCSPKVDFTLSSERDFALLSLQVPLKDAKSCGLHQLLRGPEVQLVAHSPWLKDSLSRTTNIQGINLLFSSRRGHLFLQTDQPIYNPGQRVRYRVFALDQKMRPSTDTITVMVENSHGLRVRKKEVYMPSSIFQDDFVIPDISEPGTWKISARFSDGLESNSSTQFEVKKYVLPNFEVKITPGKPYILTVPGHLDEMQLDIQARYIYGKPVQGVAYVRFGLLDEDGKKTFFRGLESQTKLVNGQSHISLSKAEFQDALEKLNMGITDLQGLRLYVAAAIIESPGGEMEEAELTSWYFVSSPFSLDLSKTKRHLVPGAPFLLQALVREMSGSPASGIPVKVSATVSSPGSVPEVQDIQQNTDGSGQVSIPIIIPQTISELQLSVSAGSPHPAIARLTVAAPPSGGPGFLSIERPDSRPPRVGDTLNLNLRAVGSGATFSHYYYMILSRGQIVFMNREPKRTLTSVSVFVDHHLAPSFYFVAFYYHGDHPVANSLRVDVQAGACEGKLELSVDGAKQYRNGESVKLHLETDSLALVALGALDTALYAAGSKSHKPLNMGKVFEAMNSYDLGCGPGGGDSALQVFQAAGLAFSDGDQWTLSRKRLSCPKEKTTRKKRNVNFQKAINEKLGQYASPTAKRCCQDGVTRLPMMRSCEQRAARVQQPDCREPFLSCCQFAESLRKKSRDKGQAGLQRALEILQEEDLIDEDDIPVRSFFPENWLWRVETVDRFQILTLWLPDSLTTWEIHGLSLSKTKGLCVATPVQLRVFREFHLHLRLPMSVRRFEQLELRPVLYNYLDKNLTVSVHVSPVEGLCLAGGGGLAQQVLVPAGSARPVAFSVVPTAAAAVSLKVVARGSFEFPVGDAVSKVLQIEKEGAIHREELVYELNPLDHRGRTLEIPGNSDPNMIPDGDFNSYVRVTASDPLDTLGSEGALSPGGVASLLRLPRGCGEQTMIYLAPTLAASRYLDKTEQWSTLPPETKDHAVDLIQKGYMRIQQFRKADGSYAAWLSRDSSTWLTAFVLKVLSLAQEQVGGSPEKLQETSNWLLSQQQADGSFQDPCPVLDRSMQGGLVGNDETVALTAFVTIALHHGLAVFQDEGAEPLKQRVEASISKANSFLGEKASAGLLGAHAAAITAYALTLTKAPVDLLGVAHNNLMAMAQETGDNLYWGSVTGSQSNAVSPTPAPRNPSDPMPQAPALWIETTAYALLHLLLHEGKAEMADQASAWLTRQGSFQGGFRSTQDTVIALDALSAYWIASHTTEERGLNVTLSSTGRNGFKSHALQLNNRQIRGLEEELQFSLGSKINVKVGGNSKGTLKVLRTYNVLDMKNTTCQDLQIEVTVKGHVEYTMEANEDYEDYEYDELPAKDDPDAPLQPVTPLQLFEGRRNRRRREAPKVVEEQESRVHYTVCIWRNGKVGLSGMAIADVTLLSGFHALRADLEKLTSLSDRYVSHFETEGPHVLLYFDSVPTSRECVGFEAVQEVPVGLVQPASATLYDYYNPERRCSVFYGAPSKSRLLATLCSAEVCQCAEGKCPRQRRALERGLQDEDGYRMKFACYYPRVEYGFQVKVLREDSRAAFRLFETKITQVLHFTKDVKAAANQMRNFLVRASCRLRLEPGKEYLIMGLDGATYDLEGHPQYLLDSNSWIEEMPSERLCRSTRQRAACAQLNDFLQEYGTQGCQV
# UniProt Q96B23: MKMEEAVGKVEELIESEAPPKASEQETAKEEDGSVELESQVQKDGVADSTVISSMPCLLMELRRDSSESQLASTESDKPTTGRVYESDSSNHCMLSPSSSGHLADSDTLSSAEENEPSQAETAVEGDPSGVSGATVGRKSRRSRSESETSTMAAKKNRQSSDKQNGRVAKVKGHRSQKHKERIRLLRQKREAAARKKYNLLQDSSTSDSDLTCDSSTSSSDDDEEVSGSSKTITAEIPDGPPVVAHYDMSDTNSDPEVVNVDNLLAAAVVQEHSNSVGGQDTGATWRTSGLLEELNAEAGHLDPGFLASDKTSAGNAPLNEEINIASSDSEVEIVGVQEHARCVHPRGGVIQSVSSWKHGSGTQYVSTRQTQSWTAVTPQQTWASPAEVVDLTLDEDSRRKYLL
# UniProt Q9H7E9: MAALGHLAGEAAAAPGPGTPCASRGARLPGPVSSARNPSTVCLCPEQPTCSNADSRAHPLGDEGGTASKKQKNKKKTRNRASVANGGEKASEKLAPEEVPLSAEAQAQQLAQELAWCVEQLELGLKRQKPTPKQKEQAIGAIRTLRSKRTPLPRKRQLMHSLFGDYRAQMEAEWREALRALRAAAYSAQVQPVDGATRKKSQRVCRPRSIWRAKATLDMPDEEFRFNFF
# UniProt Q6PH81: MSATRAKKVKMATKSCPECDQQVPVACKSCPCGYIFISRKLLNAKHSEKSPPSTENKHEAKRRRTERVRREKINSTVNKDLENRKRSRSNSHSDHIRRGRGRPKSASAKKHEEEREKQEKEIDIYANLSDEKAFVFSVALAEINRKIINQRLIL
# UniProt Q9Y6E2: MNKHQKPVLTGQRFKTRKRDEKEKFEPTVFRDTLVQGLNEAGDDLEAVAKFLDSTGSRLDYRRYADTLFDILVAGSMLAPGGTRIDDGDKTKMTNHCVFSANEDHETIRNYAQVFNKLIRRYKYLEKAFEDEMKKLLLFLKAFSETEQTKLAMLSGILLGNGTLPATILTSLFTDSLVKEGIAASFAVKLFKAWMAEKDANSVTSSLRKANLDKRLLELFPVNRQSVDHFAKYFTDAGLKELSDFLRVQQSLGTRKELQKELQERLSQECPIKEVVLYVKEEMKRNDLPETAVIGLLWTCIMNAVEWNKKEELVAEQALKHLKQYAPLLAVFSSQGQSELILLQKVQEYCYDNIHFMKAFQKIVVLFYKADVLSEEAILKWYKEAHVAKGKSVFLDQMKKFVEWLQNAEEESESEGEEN
# UniProt Q9HB71, whole entry, looked up: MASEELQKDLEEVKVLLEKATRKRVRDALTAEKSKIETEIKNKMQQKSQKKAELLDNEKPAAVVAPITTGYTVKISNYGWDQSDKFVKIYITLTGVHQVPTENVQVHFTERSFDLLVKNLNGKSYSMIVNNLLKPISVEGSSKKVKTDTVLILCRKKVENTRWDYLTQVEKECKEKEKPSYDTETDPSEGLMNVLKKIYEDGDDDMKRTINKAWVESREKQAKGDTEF
# UniProt Q7L1Q6: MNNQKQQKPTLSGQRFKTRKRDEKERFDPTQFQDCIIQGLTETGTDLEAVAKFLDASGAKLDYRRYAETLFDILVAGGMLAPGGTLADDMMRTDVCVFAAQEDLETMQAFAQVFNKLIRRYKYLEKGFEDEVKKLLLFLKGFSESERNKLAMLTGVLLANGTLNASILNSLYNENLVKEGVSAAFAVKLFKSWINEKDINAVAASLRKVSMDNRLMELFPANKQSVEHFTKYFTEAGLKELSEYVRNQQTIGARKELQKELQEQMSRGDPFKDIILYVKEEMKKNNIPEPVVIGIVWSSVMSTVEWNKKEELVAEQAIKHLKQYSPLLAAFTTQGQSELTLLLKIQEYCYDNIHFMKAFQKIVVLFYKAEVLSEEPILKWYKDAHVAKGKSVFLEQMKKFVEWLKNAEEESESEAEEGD
# The list shows a part of the results.
# Tests used:
# Assay in all cases: log2 fold change, soluble protein after heating vs DMSO (PISA); higher = thermal stabilisation; K562 lysate, 10 uM; active = over 0.2 and 3.5 SD of the protein, either way, in both replicates (recomputed)
# vemurafenib = compound: CCCS(=O)(=O)Nc1ccc(F)c(C(=O)c2c[nH]c3ncc(-c4ccc(Cl)cc4)cc23)c1F [vemurafenib]
# How it was run: (§1)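 Quantification was by TMTpro 16plex LC-MS/MS with equalised channel sums, applied to the supernatant after 21,000xg for 90 min. Samples were crude K562 extract at 1 mg/mL protein in PBS pH 7.4 with 1 mM MgCl2, treated with 10 μM compound for 30 min, heated for 3 min across 48°C-58°C, pooled and brought to 0.5% NP-40 at 4°C. Values are log-two fold changes in thermal stability relative to solvent controls, from duplicates.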
# [1] = compound: CCCS(=O)(=O)Nc1ccc(F)c(C(=O)c2c[nH]c3ncc(Cl)cc23)c1F
# How it was run: as §1
# barasertib = compound: CCN(CCCOc1ccc2c(Nc3cc(CC(=O)Nc4cccc(F)c4)[nH]n3)ncnc2c1)CCOP(=O)(O)O [barasertib]
# How it was run: as §1
# [2] = compound: CC[C@@H]1C(=O)N(C)c2cnc(Nc3ccc(C(=O)NC4CCN(C)CC4)cc3OC)nc2N1C1CCCC1
# How it was run: as §1
# volasertib = compound: CC[C@@H]1C(=O)N(C)c2cnc(Nc3ccc(C(=O)N[C@H]4CC[C@H](N5CCN(CC6CC6)CC5)CC4)cc3OC)nc2N1C(C)C [volasertib]
# How it was run: as §1
# sotrastaurin = compound: CN1CCN(c2nc(C3=C(c4c[nH]c5ccccc45)C(=O)NC3=O)c3ccccc3n2)CC1 [sotrastaurin]
# How it was run: as §1
# defactinib = compound: CNC(=O)c1ccc(Nc2ncc(C(F)(F)F)c(NCc3nccnc3N(C)S(C)(=O)=O)n2)cc1 [defactinib]
# How it was run: as §1
# encorafenib = compound: COC(=O)N[C@@H](C)CNc1nccc(-c2cn(C(C)C)nc2-c2cc(Cl)cc(NS(C)(=O)=O)c2F)n1 [encorafenib]
# How it was run: as §1
# [3] = compound: COC(=O)[C@H](CCSC)NC(=O)C1=C(C=C(C=C1)NC[C@H](CS)N)C2=CC=CC=C2
# How it was run: as §1
# [4] = compound: COc1cc2nc(-c3cc(F)ccc3O)nc(N[C@@H]3CNC[C@H]3C(C)(C)O)c2cc1OC
# How it was run: as §1
# [5] = compound: CCn1c(C(=O)N(C2CC2)C2CC2)cc2c3c(ncn3C)c(Nc3cc(C)n(C)n3)nc21
# How it was run: as §1
# [6] = compound: CCn1cc(-c2ccnc3[nH]c(-c4cccc(CN(C)C)c4)cc23)c(-c2ccc(NC(=O)N(C)C)cc2)n1
# How it was run: as §1
# [7] = compound: CN1CCC(CNc2ccc3ncc(-c4cccc(OC(F)(F)F)c4)n3n2)CC1
# How it was run: as §1
# saracatinib = compound: CN1CCN(CCOc2cc(OC3CCOCC3)c3c(Nc4c(Cl)ccc5c4OCO5)ncnc3c2)CC1 [saracatinib]
# How it was run: as §1
# alvocidib = compound: CN1CC[C@H](c2c(O)cc(O)c3c(=O)cc(-c4ccccc4Cl)oc23)[C@H](O)C1 [alvocidib]
# How it was run: as §1
# Tubastatin A = compound: CN1CCc2c(c3ccccc3n2Cc2ccc(C(=O)NO)cc2)C1 [Tubastatin A]
# How it was run: as §1
# [8] = compound: CNC(=O)C1=CC=CC=C1NC2=NC(=NC=C2Cl)NC3=C(C=C(C=C3)N4CCOCC4)OC
# How it was run: as §1
# [9] = compound: CNc1nc(-c2ccc3c(N)n[nH]c3c2)cc(N2C[C@@H](C(=O)NC3CCCCC3)CC[C@H]2C)n1
# How it was run: as §1
# alisertib = compound: COc1cc(Nc2ncc3c(n2)-c2ccc(Cl)cc2C(c2c(F)cccc2OC)=NC3)ccc1C(=O)O [alisertib]
# How it was run: as §1
# gefitinib = compound: COc1cc2ncnc(Nc3ccc(F)c(Cl)c3)c2cc1OCCCN1CCOCC1 [gefitinib]
# How it was run: as §1
Target,log2 fold change (vemurafenib),log2 fold change [1],log2 fold change (barasertib),log2 fold change [2],log2 fold change (volasertib),log2 fold change (sotrastaurin),log2 fold change (defactinib),log2 fold change (encorafenib),log2 fold change [3],log2 fold change [4],log2 fold change [5],log2 fold change [6],log2 fold change [7],log2 fold change (saracatinib),log2 fold change (alvocidib),log2 fold change (Tubastatin A),log2 fold change [8],log2 fold change [9],log2 fold change (alisertib),log2 fold change (gefitinib)
CABLES2 (UniProt Q9BTV7),inactive: 0.01,inactive: 0.114,inactive: 0.177,inactive: 0.012,inactive: -0.029,inactive: -0.162,inactive: 0.078,inactive: -0.019,inactive: 0.015,inactive: 0.131,–,–,–,–,–,–,–,–,–,–
CALM2 (UniProt P0DP24),inactive: 0.028,inactive: 0.011,active: 0.564,inactive: 0.038,inactive: 0.024,inactive: 0,inactive: -0.016,inactive: 0.03,inactive: -0.085,inactive: 0.026,inactive: -0.079,inactive: -0.22,inactive: 0.237,inactive: 0.029,inactive: -0.063,inactive: 0.018,inactive: -0.059,inactive: 0.124,inactive: 0.011,inactive: -0.13
C9orf40 (UniProt Q8IXQ3),inactive: 0.053,inactive: 0.032,inactive: 0.107,inactive: 0.071,inactive: 0.012,inactive: -0.007,inactive: 0.021,inactive: 0.034,inactive: -0.006,inactive: -0.017,inactive: 0.033,inactive: -0.035,inactive: 0.014,inactive: 0.03,inactive: -0.007,inactive: -0.026,inactive: -0.013,inactive: 0.06,inactive: 0.165,inactive: 0.048
CAD (UniProt P27708),inactive: 0.005,inactive: 0.026,inactive: -0.004,inactive: -0.037,inactive: -0.069,inactive: 0.003,inactive: -0.022,inactive: 0.001,inactive: 0.067,inactive: -0.015,inactive: 0.012,inactive: -0.085,inactive: 0.003,inactive: -0.004,inactive: 0,inactive: -0.063,inactive: 0.01,inactive: -0.008,inactive: -0.007,inactive: -0.032
CANT1 (UniProt Q8WVQ1),inactive: 0.008,inactive: -0.002,inactive: 0.031,inactive: -0.022,inactive: -0.028,inactive: -0.026,inactive: 0.016,inactive: 0.024,inactive: -0.081,inactive: -0.005,inactive: -0.014,inactive: 0.016,inactive: 0.01,inactive: 0.006,inactive: -0.003,inactive: 0.042,inactive: 0,inactive: -0.005,inactive: 0.022,inactive: 0.014
CAPZB (UniProt P47756),inactive: 0.004,inactive: 0.014,inactive: 0.001,inactive: 0.053,inactive: 0.015,inactive: 0.001,inactive: -0.004,inactive: -0.015,inactive: 0.011,inactive: 0.001,inactive: -0.018,inactive: 0.197,inactive: -0.056,inactive: -0.015,inactive: 0.046,inactive: 0.032,inactive: -0.004,inactive: 0.014,inactive: -0.01,inactive: -0.044
C15orf41 (UniProt Q9Y2V0),inactive: 0.151,inactive: 0.005,inactive: 0.095,inactive: -0.089,inactive: 0.041,inactive: -0.016,inactive: -0.13,inactive: 0.126,inactive: -0.043,inactive: 0.09,inactive: -0.049,inactive: -0.143,inactive: 0.037,inactive: -0.018,inactive: -0.002,inactive: -0.036,inactive: 0.039,inactive: 0.002,inactive: 0.023,inactive: 0.006
C4A (UniProt P0C0L4),inactive: -0.205,inactive: 0.162,inactive: 0.01,inactive: 0.066,inactive: -0.096,inactive: -0.026,inactive: 0.03,inactive: 0.005,inactive: -0.005,inactive: 0.025,inactive: -0.047,inactive: -0.037,inactive: 0.074,inactive: 0.053,inactive: -0.075,inactive: 0.051,inactive: -0.01,inactive: -0.012,–,–
C8orf37 (UniProt Q96NL8),inactive: 0.081,inactive: -0.061,inactive: -0.062,inactive: 0.058,inactive: -0.043,inactive: 0.072,inactive: 0.281,inactive: 0.018,inactive: -0.011,inactive: 0.162,inactive: -0.075,inactive: 0.225,inactive: 0.166,inactive: -0.06,inactive: -0.146,inactive: 0.022,inactive: -0.035,inactive: -0.099,–,–
C18orf25 isoform 2 (UniProt Q96B23),inactive: -0.01,inactive: 0.027,inactive: -0.034,inactive: 0.067,inactive: -0.021,–,inactive: 0.072,inactive: 0.033,inactive: -0.084,inactive: 0.031,inactive: -0.047,inactive: -0.234,inactive: 0.037,inactive: -0.037,inactive: 0.1,inactive: 0.106,inactive: 0.1,inactive: 0.043,inactive: 0.058,inactive: 0.034
C18orf25 (UniProt Q96B23),inactive: -0.014,inactive: 0.014,inactive: 0.004,inactive: 0.1,inactive: -0.013,inactive: 0.009,inactive: 0.084,inactive: -0.005,inactive: -0.067,inactive: -0.027,inactive: -0.059,inactive: -0.035,inactive: 0.015,inactive: -0.032,inactive: -0.014,inactive: 0.123,inactive: 0.034,inactive: 0.041,inactive: 0.019,inactive: 0.029
C8orf33 isoform 2 (UniProt Q9H7E9),inactive: 0.019,inactive: 0.035,inactive: -0.009,inactive: 0.062,inactive: 0.004,inactive: 0.005,inactive: 0.033,inactive: 0.048,inactive: -0.244,inactive: -0.082,inactive: 0.101,inactive: 0.094,inactive: 0.019,inactive: 0.082,inactive: 0.013,inactive: -0.103,inactive: 0.082,inactive: 0.13,inactive: -0.041,inactive: 0.011
C16orf87 (UniProt Q6PH81),inactive: 0.032,inactive: 0.11,inactive: -0.054,inactive: 0.037,inactive: 0.004,inactive: -0.046,inactive: -0.105,inactive: -0.102,inactive: 0.051,inactive: -0.043,inactive: 0.062,inactive: 0.417,inactive: -0.048,inactive: 0.139,inactive: -0.078,inactive: 0.19,–,inactive: 0.038,–,–
BZW2 (UniProt Q9Y6E2),inactive: -0.005,inactive: -0.009,inactive: 0.026,inactive: -0.036,inactive: -0.012,inactive: 0.012,inactive: 0.015,inactive: 0.018,inactive: -0.023,inactive: -0.005,inactive: 0.021,inactive: 0.018,inactive: -0.044,inactive: 0.015,inactive: 0.049,inactive: 0.009,inactive: -0.037,inactive: -0.018,inactive: 0.015,inactive: -0.033
CABIN1 (UniProt Q9Y6J0),inactive: -0.086,inactive: -0.042,inactive: 0.277,inactive: 0.077,inactive: -0.089,–,inactive: 0.036,inactive: 0.25,inactive: 0.269,inactive: 0.043,inactive: 0.031,inactive: -0.113,inactive: 0.066,inactive: 0.013,inactive: 0.012,inactive: -0.131,inactive: -0.051,inactive: 0.009,inactive: -0.031,inactive: 0.034
CACYBP (UniProt Q9HB71),inactive: 0.005,inactive: -0.021,inactive: -0.049,inactive: 0.023,inactive: 0.023,inactive: 0.021,inactive: -0.054,inactive: -0.038,inactive: -0.039,inactive: 0.011,inactive: -0.039,inactive: -0.014,inactive: 0.03,inactive: -0.007,inactive: -0.004,inactive: 0.058,inactive: -0.001,inactive: 0.011,inactive: 0.008,inactive: 0.003
BZW1 isoform 3 (UniProt Q7L1Q6),inactive: -0.041,inactive: 0,inactive: 0.02,inactive: -0.086,inactive: -0.023,inactive: 0.009,inactive: 0.014,inactive: 0.011,inactive: -0.029,inactive: 0.004,inactive: 0.027,inactive: -0.048,inactive: -0.014,inactive: 0.01,inactive: 0.011,inactive: -0.051,inactive: -0.023,inactive: -0.057,inactive: 0.017,inactive: -0.018

# Pulled one by one from the list above (2):
Target,log2 fold change (vemurafenib),log2 fold change [1],log2 fold change (barasertib),log2 fold change [2],log2 fold change (volasertib),log2 fold change (sotrastaurin),log2 fold change (defactinib),log2 fold change (encorafenib),log2 fold change [3],log2 fold change [4],log2 fold change [5],log2 fold change [6],log2 fold change [7],log2 fold change (saracatinib),log2 fold change (alvocidib),log2 fold change (Tubastatin A),log2 fold change [8],log2 fold change [9],log2 fold change (alisertib),log2 fold change (gefitinib)
CAD (UniProt P27708),inactive: 0.005,inactive: 0.026,inactive: -0.004,inactive: -0.037,inactive: -0.069,inactive: 0.003,inactive: -0.022,inactive: 0.001,inactive: 0.067,inactive: -0.015,inactive: 0.012,inactive: -0.085,inactive: 0.003,inactive: -0.004,inactive: 0,inactive: -0.063,inactive: 0.01,inactive: -0.008,inactive: -0.007,inactive: -0.032
CANT1 (UniProt Q8WVQ1),inactive: 0.008,inactive: -0.002,inactive: 0.031,inactive: -0.022,inactive: -0.028,inactive: -0.026,inactive: 0.016,inactive: 0.024,inactive: -0.081,inactive: -0.005,inactive: -0.014,inactive: 0.016,inactive: 0.01,inactive: 0.006,inactive: -0.003,inactive: 0.042,inactive: 0,inactive: -0.005,inactive: 0.022,inactive: 0.014
